## Primary screen of a compound library

Amino acid sequences for entries named in this document (tags omitted).
UniProt P9WPC5, whole entry: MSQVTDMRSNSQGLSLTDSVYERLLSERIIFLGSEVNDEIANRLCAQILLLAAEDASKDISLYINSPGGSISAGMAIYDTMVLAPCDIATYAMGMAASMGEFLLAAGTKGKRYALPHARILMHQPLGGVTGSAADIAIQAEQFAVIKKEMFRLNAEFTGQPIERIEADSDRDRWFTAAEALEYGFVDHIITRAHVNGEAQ
UniProt P9WPC3, whole entry partner: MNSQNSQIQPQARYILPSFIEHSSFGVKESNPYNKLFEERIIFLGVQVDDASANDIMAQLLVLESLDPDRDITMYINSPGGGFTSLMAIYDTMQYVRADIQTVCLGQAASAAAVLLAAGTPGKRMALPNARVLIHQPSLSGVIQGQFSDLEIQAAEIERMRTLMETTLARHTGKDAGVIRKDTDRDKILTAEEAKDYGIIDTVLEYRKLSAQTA

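Protease assay of ClpP1P2, read by the AMC dye that it sets free. Target: ClpP1P2, Mycobacterium tuberculosis (UniProt P9WPC5 and UniProt P9WPC3). Tested at 50 µM. Higher reads as stronger inhibition, judged from the few compounds that gave an IC50. Most other retested compounds had strongly negative values. Of about 69,000 compounds tested this way, about 10 (0.015%) reached 50% or more in at least one test.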

Each number is a percent effect as filed.
How 0% and 100% were set is not recorded. Most values in the screen are low, and negative values occur.
The compounds are a random part of those screened.

Result for Cc1ccc(CN2C[C@@H]3[C@@H](C(=O)N4CCCC4)CCS(=O)(=O)[C@@H]3C2)cc1 was -82.61%. NC(=O)CN1CCC2(CC1)C[C@@H](O)[C@H](c1ccccc1)NC2=O gave 4.031%. For CCOc1ccc(OCc2nccc(-c3cc(C(=O)O)ccn3)n2)cc1 the result was -2.838%. For CC(C(=O)N1CCN(c2ccc(F)cc2)CC1)n1ccnc1 (configuration not stated) the result was 0.2141%. With CC(O)Cc1cn(CC2CCN(C3CCSCC3)CC2)nn1 (configuration not stated) the screen gave -0.9965%. COCCNc1cc(-c2ccccc2CCN)c2cc[nH]c2n1 read -17.75%. Result for O=C1CCC(=O)N1c1nn(Cc2cccc(F)c2)cc1Cl was -5.557%.

Cc1cnc(N2CCCC3(COCCN(c4nccs4)C3)C2)nc1 (configuration not stated) read -1.22%. Result for Cc1ccccc1CC1(CO)CCCN(c2ncncc2C(C)C)C1 (configuration not stated) was -3.892%. CCOCCC(=O)N1CCc2cccc(S(=O)(=O)N3CCOCC3)c2C1 gave -8.672%. For CCC(CC)NCC(c1ccccn1)N1CCOCC1 (configuration not stated) the result was -3.085%. Cc1ccc(-n2cnc(Cl)c2CO)cc1 read 3.661%. For Cc1[nH]ncc1CCCNC(=O)N1CCOC(C)C1 (configuration not stated) the result was 16.36%. For COc1cccc([C@@H]2CCN(Cc3c[nH]c(C)n3)C[C@H]2O)c1 the result was 0.03754%.

COCCN(Cc1cccnc1)S(=O)(=O)c1cccc(F)c1F gave 4.37%. CN1CCN(C)C2(CCN(C(=O)CC(F)(F)F)CC2)C1=O read -5.752%. For CCc1ncnc2c1CCN(CC(=O)N(C)C)CC2 the result was -5.795%. With Cc1ccnc(NCCNC(=O)CCNC(=O)c2ccccc2F)c1 the screen gave -13.72%. Result for COc1cc(NC2CCCN(c3ncccc3C#N)C2)cc(OC)c1 (configuration not stated) was -7.454%. For Cn1ncc2c1CCCC2NCc1ccc(Br)s1 (configuration not stated) the result was -7.482%. Result for CS(=O)(=O)N1CCCC12CCCN(C(=O)c1ccc3[nH]ccc3c1)C2 (configuration not stated) was -3.097%.

With CC(C)CN1CCN(C(=O)c2cccnc2-n2cncn2)CC1 the screen gave -2.052%. With Cc1nc(C)n(Cc2cccc(NC(=O)NC(C)(CO)C3CC3)c2)n1 (configuration not stated) the screen gave 18.99%. CC(C)n1ccnc1C1CCN(C(=O)c2cc[nH]n2)CC1 gave 2.878%. With N#Cc1ccc(N2CCCN(CC(=O)N3CCC3)CC2)cc1 the screen gave 3.386%. Result for Cc1nn(CCN2CCSCC2)cc1CNCC1CC1 was 6.91%. For COCC1CCN(C(=O)c2cc(O)nc(CC(C)C)c2)CC1 the result was -7.611%. Result for C[C@H]1CCCCN1CCCNc1nccc(-c2c[nH][nH]c2=O)n1 was 14.62%.

With CCCc1cc(C(=O)NCCCC(=O)N2Cc3ccccc3C2)[nH]n1 the screen gave 0.4004%. Result for O=C1CCC2(CCCN(C(=O)c3cccs3)C2)N1 (configuration not stated) was -2.943%. Result for Cc1cn2c(n1)CCC(NC(=O)CCn1cncn1)C2 (configuration not stated) was -3.848%. For N#Cc1cn(C2CC2)c(=O)n(CC(O)c2ccccc2C(F)(F)F)c1=O (configuration not stated) the result was -26.97%. With Cc1ccccc1C1CCCN1Cc1nc2c(cnn2C)c(=O)[nH]1 (configuration not stated) the screen gave -9.968%. For CCSCCC(=O)NC1CCN(C(C)c2ccccc2)CC1 (configuration not stated) the result was 2.707%. For COc1ccc(-c2ccncc2)cc1CNC1CCCC1 the result was 0.1873%.

For Cc1cc(C)c(C(=O)N2CCOCC2c2c(C)nn(C)c2C)o1 (configuration not stated) the result was -18.47%. Result for Cc1c(C)n2c(SCC(=O)N3CCCCCC3)nnc2[nH]c1=O was 17.44%. Result for CCCN1CCC(CNC(=O)C2(c3cccc(C)c3)CC2)C1 (configuration not stated) was 1.948%. Cc1nc(C)c(CC(=O)Nc2nc(C)c(C)s2)c(=O)[nH]1 read -11.16%. O=C(CN1C(=O)CCC1=O)N1CCC(CSCc2ccco2)CC1 gave -0.5085%. With COC(=O)C(O)C1CCN(CCc2ccc(C)cc2)CC1 (configuration not stated) the screen gave -17.82%. With COc1cc(C(=O)NCCc2ccccc2OC)on1 the screen gave -12.39%.

CC(C)N1CC[C@@H]2OC[C@H](C(=O)Nc3cccnc3)C[C@@H]2C1 read -8.66%. For Cn1ccc(C(=O)NC2CCC23CCN(Cc2nccs2)CC3)c1 (configuration not stated) the result was -1.943%. Cc1ccc(F)cc1S(=O)(=O)NCc1cccnc1N(C)C read 6.59%. CCOCCN1CCN(Cc2nnc(-c3occc3C)o2)CC1 read -6.252%. With NC(=O)CN1CC2(CCC1=O)CCN(Cc1ccccc1F)CC2 the screen gave 3.241%. Result for Cc1cc2cc(CNC3CCN(CC4CCOC4)CC3)oc2cc1C (configuration not stated) was 2.952%. Result for CCS(=O)(=O)c1nnc([C@@H](N)Cc2ccccc2)o1 was -5.81%.

Cc1[nH]c2c(F)cccc2c1CC(=O)NCCCNc1cccnc1 read -0.2704%. CN(Cc1ccncc1)C(CO)c1cccc(Br)c1 (configuration not stated) read 8.492%. NC(=O)c1ccc(C(=O)N2CCCC(n3ccnc3)C2)s1 (configuration not stated) gave -18.97%. Result for O=C1NCCN1C1CCN(Cc2nc(-c3ccccc3)no2)CC1 was -8.64%.

Repeated from the top, 4 entries:

- Cc1ccc(CN2C[C@@H]3[C@@H](C(=O)N4CCCC4)CCS(=O)(=O)[C@@H]3C2)cc1 | -82.61%
- NC(=O)CN1CCC2(CC1)C[C@@H](O)[C@H](c1ccccc1)NC2=O | 4.031%
- CCOc1ccc(OCc2nccc(-c3cc(C(=O)O)ccn3)n2)cc1 | -2.838%
- CC(C(=O)N1CCN(c2ccc(F)cc2)CC1)n1ccnc1 (configuration not stated) | 0.2141%

From ChEMBL document CHEMBL3988442, “University of Dundee, Small-Polar-MMV Screening Library” (2021).